Measured values published in PubChem BioAssay AID504444 (National Center for Advancing Translational Sciences (NCATS), 2011).
Several values for one entry are separate records, joined by “and”; a condition that tells them apart may be missing. Equal entries are not always repeated. The campaign covered roughly 360,000 compounds. About 7,500 (2.1%) were called active. The shares of active, inactive and inconclusive entries below differ from those in the screen. The call rests on the fitted dose curve; in most records, active means well fitted inhibition curve with a large enough effect; inconclusive means small, poorly fitted or top-dose-only effect, or effect the other way; inactive means flat fitted curve, though single readings scatter. Potencies of inconclusive entries are doubtful fits and often do not repeat.

Assay: Nrf2 qHTS screen for inhibitors; further: nearly all actives have a fitted effect of over 60% in size
Details: A549 ARE-Fluc reporter, luciferase luminescence, 18-24 h; series mostly up to 46 µM
Method in brief: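 Two sequential reads on A549 ARE_Fluc cells exposed to compound for 18-24 h: a CellTiter-Fluor fluorescence read for viability, then a luciferase luminescence read for Nrf2/ARE activity.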
Potency means the concentration at half of the fitted maximal effect.

Structure (SMILES) | Potency
O=C(C1CCN(c2nc3ccc(Br)cc3s2)CC1)N1CCC2(CC1)OCCO2 | inconclusive: 23.1 µM [falling, single point]
O=C(O)Cn1cc(/C=C2\C(=O)NC(=O)N(Cc3ccco3)C2=O)c2ccccc21 | inactive
CCOP(=S)(OCC)Oc1nc(Cl)c(Cl)cc1Cl | inactive
OCC[n+]1c2ccccc2nc2ccc(N3CCOCC3)cc21 | inconclusive: 0.58 µM [falling, full curve, poor fit]
COC(=O)C1CN(C#N)N(c2ccc(Cl)cc2)C12c1ccccc1-c1ccccc12 (centres undefined) | active: 18.4 µM
CCOC(=O)C1SC2(C(F)(F)C(F)F)CC1(O)c1c(c(OC)c3occc3c1OC)O2 (centres undefined) | inconclusive: 23.1 µM [falling, partial curve, poor fit]
O=C(CN1CC=C(c2ccccc2)CC1)Nc1cc(Cl)ccc1Cl | inactive
CCN(CC)C(=O)c1ccc(NC(=O)c2cccc(F)c2)cc1 | inconclusive: 4.61 µM [activator, full curve, poor fit]
COc1ccccc1C1=NOC(COC(=O)c2ccc([N+](=O)[O-])cc2)C1 (centres undefined) | inconclusive: 9.2 µM [activator, partial curve]
CCC1=Nc2cc(C(=O)N3CCC4(CC3)OCCO4)ccc2Sc2ccc(C)cc21 | inactive
Cc1c(N=Cc2c(O)n(CCc3ccccc3)c(=O)[nH]c2=O)c(=O)n(-c2ccccc2)n1C | inactive
COc1ccc(C(=O)C2CCCN(Cc3ccccn3)C2)c(OC)c1 (centres undefined) | inconclusive: 6.51 µM [falling, single point]
Cc1ccc(NC(=O)C2CCCN(C(=O)c3cnn(-c4ccccc4)c3-n3cccc3)C2)cc1 (centres undefined) | active: 13 µM
C[C@]12CCC3C(CC[C@@H]4C[C@H](O)CC[C@]34C)C1CCC2=O (some centres undefined) | inactive
COc1ccc(NS(=O)(=O)c2cc(N=Nc3c(O)[nH]c(=O)[nH]c3=O)ccc2Cl)cc1 | inconclusive: 1.64 µM [falling, full curve]
COC(=O)C(O)(c1ccc(N(C)C(=O)OC(C)C)cc1)C(F)(F)F (centres undefined) | inconclusive: 0.58 µM [falling, partial curve, poor fit]
CCc1cccc(NC(=O)Cn2c(=O)oc3cc(S(=O)(=O)N4CCOCC4)ccc32)c1 | inconclusive: 29.1 µM [falling, single point]
CCCCCn1c(=O)c(C(=O)NC(C)c2ccccc2)c(O)c2ccccc21 (centres undefined) | inconclusive: 9.2 µM [falling, partial curve]
Clc1ccc2c(c1)C(c1ccccc1Cl)=NCc1nnc(N3CCN(CCOc4ccccc4)CC3)n1-2 | inactive
Nc1ccccc1C(=O)OCCc1ccccc1 | inconclusive: 23.1 µM [activator, partial curve]
COC(=O)C1=C(c2cccc(OC)c2OC)C[C@@H]2CC[C@H]1N2C(=O)NCCO | inconclusive: 0.291 µM [activator, full curve, poor fit]
O=c1cc(-c2ccc(O)c(O)c2)oc2cc(O)cc(O)c12 | inconclusive: 20.6 µM [activator, single point]

Reformatted in markdown: 14 of the compounds above

| Structure (SMILES) | Potency |
| --- | --- |
| CCOC(=O)C1SC2(C(F)(F)C(F)F)CC1(O)c1c(c(OC)c3occc3c1OC)O2 (centres undefined) | inconclusive: 23.1 µM [falling, partial curve, poor fit] |
| O=C(CN1CC=C(c2ccccc2)CC1)Nc1cc(Cl)ccc1Cl | inactive |
| CCN(CC)C(=O)c1ccc(NC(=O)c2cccc(F)c2)cc1 | inconclusive: 4.61 µM [activator, full curve, poor fit] |
| COc1ccccc1C1=NOC(COC(=O)c2ccc([N+](=O)[O-])cc2)C1 (centres undefined) | inconclusive: 9.2 µM [activator, partial curve] |
| CCC1=Nc2cc(C(=O)N3CCC4(CC3)OCCO4)ccc2Sc2ccc(C)cc21 | inactive |
| Cc1c(N=Cc2c(O)n(CCc3ccccc3)c(=O)[nH]c2=O)c(=O)n(-c2ccccc2)n1C | inactive |
| COc1ccc(C(=O)C2CCCN(Cc3ccccn3)C2)c(OC)c1 (centres undefined) | inconclusive: 6.51 µM [falling, single point] |
| Cc1ccc(NC(=O)C2CCCN(C(=O)c3cnn(-c4ccccc4)c3-n3cccc3)C2)cc1 (centres undefined) | active: 13 µM |
| C[C@]12CCC3C(CC[C@@H]4C[C@H](O)CC[C@]34C)C1CCC2=O (some centres undefined) | inactive |
| COc1ccc(NS(=O)(=O)c2cc(N=Nc3c(O)[nH]c(=O)[nH]c3=O)ccc2Cl)cc1 | inconclusive: 1.64 µM [falling, full curve] |
| COC(=O)C(O)(c1ccc(N(C)C(=O)OC(C)C)cc1)C(F)(F)F (centres undefined) | inconclusive: 0.58 µM [falling, partial curve, poor fit] |
| CCc1cccc(NC(=O)Cn2c(=O)oc3cc(S(=O)(=O)N4CCOCC4)ccc32)c1 | inconclusive: 29.1 µM [falling, single point] |
| CCCCCn1c(=O)c(C(=O)NC(C)c2ccccc2)c(O)c2ccccc21 (centres undefined) | inconclusive: 9.2 µM [falling, partial curve] |
| Clc1ccc2c(c1)C(c1ccccc1Cl)=NCc1nnc(N3CCN(CCOc4ccccc4)CC3)n1-2 | inactive |

Next part.

Structure (SMILES) | Potency
COC(=O)[C@H]1C[C@@H]1[C@H](NP(=O)(c1ccccc1)c1ccccc1)c1ccccc1 | inactive
Cc1cc(/C=C2/C(=O)NC(=O)N(C)C2=O)c(C)n1-c1ccccc1 | inconclusive: 29.1 µM [activator, single point]
O=C1CSC2N1CCNC21CCCCC1 (centres undefined) | inconclusive: 0.731 µM [activator, partial curve, poor fit]
Cc1cc(=O)n(-c2ccccc2)n1C | inconclusive: 23.1 µM [falling, partial curve, poor fit]
Clc1ccc(COC(Cn2ccnc2)c2ccc(Cl)cc2Cl)c(Cl)c1 (centres undefined) | inconclusive: 23.1 µM [falling, single point] and inconclusive: 32.6 µM [falling, single point]
CC1=CC2OC3CC4OC(=O)C=CC=CC(=O)OCCC(C)C(O)C(=O)OCC2(CC1O)C4(C)C31CO1 (centres undefined) | active: 0.0731 µM
Cc1ccc(Cn2nnnc2CN2CCC(n3nnc4ccccc43)CC2)cc1 | inconclusive: 11.6 µM [falling, partial curve, poor fit]
COC(=O)C1=C(c2ccc(F)cc2OCc2ccccc2)C[C@@H]2CC[C@H]1N2C(=O)NCc1ccc([N+](=O)[O-])cc1 | inconclusive: 14.6 µM [falling, partial curve, poor fit]
CCOc1cc(-c2nc3c(C)cccn3c2NCC2CCCO2)ccc1O (centres undefined) | inactive
N#Cc1c(Br)n(C2OC(CO)C(O)C2O)c2ncnc(N)c12 (centres undefined) | inactive
COc1cccc(-n2cnc3sc(-c4ccccc4)cc3c2=O)c1 | inconclusive: 0.58 µM [activator, full curve]
COC(=O)C1=C(c2cccc(OC)c2OC)C[C@@H]2CC[C@H]1N2C(=O)NCCNC(C)=O | inactive
CCN(CC)P(=O)(NC(=O)C(Cl)(Cl)Cl)N(CC)CC.[Cl-].[Cl-].[Cl-].[Nd+3] | inconclusive: 32.6 µM [falling, partial curve, poor fit]
O=C(NCCc1ccccc1)c1ccc2nccnc2c1 | inconclusive: 29.1 µM [falling, single point]
COc1ccc(CCNc2nc3ccc(Cl)cc3n3cnnc23)cc1OC | inconclusive: 6.51 µM [falling, partial curve, poor fit]
O=C(O)c1[nH]c(=O)[nH]c(=O)c1F | inconclusive: 25.9 µM [falling, partial curve, poor fit]
CCC(=NCCc1ccccc1)c1c(O)n(C2CCCCC2)c(=O)[nH]c1=O | active: 20.6 µM
CN(C)c1ccc([P+](=O)c2ccc(N(C)C)cc2)cc1 | inconclusive: 32.6 µM [activator, partial curve, poor fit]
CSC(=Nc1ccccc1)c1c(O)n(C)c(=O)n(C)c1=O | inconclusive: 23.1 µM [falling, single point]
COC(=O)C(O)(c1ccc(NC(=O)c2ccccc2)cc1)C(F)(F)F (centres undefined) | inconclusive: 3.66 µM [activator, full curve, poor fit]
C[C@]12CC[C@@H](O)CC1=CCC1C2CC[C@@]2(C)C1CC[C@@H]2N (some centres undefined) | inconclusive: 29.1 µM [activator, partial curve, poor fit]
Cc1cc(C(=O)CN2C(=O)c3ccccc3C2=O)c(C)n1C1CC1 | inconclusive: 3.26 µM [activator, partial curve, poor fit]

Structure (SMILES) | Potency
COc1cccc(CN2CCCC(C(=O)c3ccccc3SC)C2)c1O (centres undefined) | inactive
CN1CCCN(c2ccc([N+](=O)[O-])nc2)CC1 | inconclusive: 14.6 µM [activator, single point]
O=C1NC(=O)C2(CCN(S(=O)(=O)c3ccccc3)CC2)C(=O)N1 | inconclusive: 4.61 µM [activator, partial curve, poor fit]
COc1cc(C(c2c(C)[nH]n(-c3ccccc3)c2=O)c2c(C)[nH]n(-c3ccccc3)c2=O)cc(OC)c1OC | inconclusive: 32.6 µM [falling, single point]
O=C(c1cccs1)c1cn(Cc2ccccc2Cl)c2ccccc12 | inactive
NC(N)=N/N=C/c1cn(-c2ccccc2)nc1-c1cccs1 | inactive
COC(=O)C1=C(c2ccc(OCc3ccccc3)cc2)C[C@@H]2CC[C@H]1N2C(=O)NCc1cccc(C(F)(F)F)c1 | inconclusive: 25.9 µM [falling, single point]
O=C1NC(=O)N(Cc2ccco2)C(=O)/C1=C\c1ccc(-c2ccc(F)cc2)o1 | inconclusive: 20.6 µM [activator, single point]
COC(=O)[C@@H](Cc1ccccc1)N(Cc1ccccc1)S(=O)(=O)N(Cc1ccccc1)[C@H](Cc1ccccc1)C(=O)OC | inconclusive: 29.1 µM [falling, single point]
O=P(O)(O)CN1CCNCCN(CP(=O)(O)O)CCNCC1 | inconclusive: 29.1 µM [activator, single point]
Cc1nn(Cc2ccccc2Cl)c(Cl)c1C(=O)OC(C(=O)NC(N)=O)C(C)C (centres undefined) | inconclusive: 0.231 µM [activator, full curve, poor fit]
CCCCn1c(O)c(/C=N/N2CCOCC2)c(=O)[nH]c1=S | inconclusive: 0.103 µM [activator, full curve, poor fit]
CCCCc1cc(=O)oc2cc(OCC(=O)N3C[C@H]4C[C@@H](C3)c3cccc(=O)n3C4)c(Cl)cc12 | inconclusive: 2.06 µM [falling, partial curve, poor fit]
O=C(NCc1ccc(Cl)cc1)C1CCCN(C(=O)c2cnn(-c3ccc(F)cc3)c2-n2cccc2)C1 (centres undefined) | inconclusive: 20.6 µM [falling, partial curve, poor fit]
CC(=O)c1c(O)n(C)c(=S)n(-c2ccccc2)c1=O | inconclusive: 7.31 µM [falling, single point]
O=C(Nc1cccc(OC(=O)N2CCCCC2)c1)N1CCOCC1 | active: 16.4 µM
O=c1cc(CN2CC=C(c3ccccc3)CC2)c2c(ccc3ccccc32)o1 | inconclusive: 29.1 µM [activator, single point]
O=C1NC(=O)N(c2cccc(Cl)c2)C(=O)/C1=C\c1ccc(Sc2nc3ccccc3[nH]2)o1 | inactive
N#CC(C#N)=NNc1ccc(-n2ccc(C(F)(F)F)n2)cc1 | active: 16.4 µM
CCC(C(=O)Nc1ccccc1C(=O)OC)n1nc(C)c2c(C)n(-c3ccc(C)cc3)nc2c1=O (centres undefined) | active: 18.4 µM
